# Some of the results follow.
# Tests used:
# Test in all cases: glycan array binding signal (z-score within array); higher = stronger binding
# Conditions in all cases: glycan notation: IUPAC condensed, linker removed
# [1] = target: Gal(b1-3)GlcNAc(b1-3)Gal(b1-4)GlcNAc(b1-2)[Gal(b1-3)GlcNAc(b1-3)Gal(b1-4)GlcNAc(b1-6)]Man(a1-6)[Gal(b1-3)GlcNAc(b1-3)Gal(b1-4)GlcNAc(b1-2)Man(a1-3)]Man(b1-4)GlcNAc(b1-4)[Fuc(a1-6)]GlcNAc
# Summary of the method: (§1)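 Negative Z-scores can be read as non-binding. The Z-score is calculated within each array and then averaged across arrays of one protein sequence at different concentrations or buffers and across linkers. Arrays, 3228 in all, were curated from the Consortium for Functional Glycomics database and kept only where the protein sequence was available.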
# [2] = target: Gal(b1-3)GlcNAc(b1-3)Gal(b1-4)GlcNAc(b1-3)Gal(b1-4)GlcNAc(b1-2)[Gal(b1-3)GlcNAc(b1-3)Gal(b1-4)GlcNAc(b1-3)Gal(b1-4)GlcNAc(b1-6)]Man(a1-6)[Gal(b1-3)GlcNAc(b1-3)Gal(b1-4)GlcNAc(b1-3)Gal(b1-4)GlcNAc(b1-2)Man(a1-3)]Man(b1-4)GlcNAc(b1-4)[Fuc(a1-6)]GlcNAc
# Summary of the method: as §1
# [3] = target: Gal(b1-3)GlcNAc(b1-3)Gal(b1-4)GlcNAc(b1-6)[Gal(b1-3)GlcNAc(b1-3)]Gal(b1-4)Glc
# Summary of the method: as §1
# [4] = target: Gal(b1-3)GlcNAc(b1-3)Gal(b1-4)[Fuc(a1-3)]GlcNAc
# Summary of the method: as §1
# [5] = target: Gal(b1-3)GlcNAc(b1-3)Gal(b1-4)[Fuc(a1-3)]GlcNAc(b1-6)[Gal(b1-3)GlcNAc(b1-3)]Gal(b1-4)Glc
# Summary of the method: as §1
# [6] = target: Gal(b1-3)GlcNAc(b1-3)GalNAc
# Summary of the method: as §1
# [7] = target: Gal(b1-3)GlcNAc(b1-6)Gal(b1-4)GlcNAc
# Summary of the method: as §1
# [8] = target: Gal(b1-3)GlcNAc(b1-6)GalNAc
# Summary of the method: as §1
# [9] = target: Gal(b1-3)GlcNAc(b1-6)[Gal(b1-3)]GalNAc
# Summary of the method: as §1
# [10] = target: Gal(b1-3)GlcNAc6S
# Summary of the method: as §1
# [11] = target: Gal(b1-3)[Fuc(a1-4)]GlcNAc
# Summary of the method: as §1
# [12] = target: Gal(b1-3)[Fuc(a1-4)]GlcNAc(b1-2)Man
# Summary of the method: as §1
# [13] = target: Gal(b1-3)[Fuc(a1-4)]GlcNAc(b1-2)Man(a1-3)[Gal(b1-3)[Fuc(a1-4)]GlcNAc(b1-2)Man(a1-6)]Man(b1-4)GlcNAc(b1-4)[Fuc(a1-6)]GlcNAc
# Summary of the method: as §1
# [14] = target: Gal(b1-3)[Fuc(a1-4)]GlcNAc(b1-3)Gal(b1-3)[Fuc(a1-4)]GlcNAc
# Summary of the method: as §1
# [15] = target: Gal(b1-3)[Fuc(a1-4)]GlcNAc(b1-3)Gal(b1-4)[Fuc(a1-3)]GlcNAc
# Summary of the method: as §1
# [16] = target: Gal(b1-3)[Fuc(a1-4)]GlcNAc(b1-6)GalNAc
# Summary of the method: as §1
# [17] = target: Gal(b1-3)[GlcNAc(b1-6)]GalNAc
# Summary of the method: as §1
# [18] = target: Gal(b1-3)[Neu5Ac(a2-6)]GalNAc
# Summary of the method: as §1
# [19] = target: Gal(b1-3)[Neu5Ac(a2-6)]GlcNAc(b1-4)Gal(b1-4)Glc
# Summary of the method: as §1
# [20] = target: Gal(b1-3)[Neu5Ac(b2-6)]GalNAc
# Summary of the method: as §1
# [21] = target: Gal(b1-4)Gal
# Summary of the method: as §1
# [22] = target: Gal(b1-4)GalNAc(a1-3)[Fuc(a1-2)]Gal(b1-4)GlcNAc
# Summary of the method: as §1
# [23] = target: Gal(b1-4)GalNAc(b1-3)[Fuc(a1-2)]Gal(b1-4)GlcNAc
# Summary of the method: as §1
# [24] = target: Gal(b1-4)Glc
# Summary of the method: as §1
# [25] = target: Gal(b1-4)Glc6S
# Summary of the method: as §1
# [26] = target: Gal(b1-4)GlcNAc
# Summary of the method: as §1
# [27] = target: Gal(b1-4)GlcNAc(a1-6)Gal(b1-4)GlcNAc
# Summary of the method: as §1
# [28] = target: Gal(b1-4)GlcNAc(b1-2)Man
# Summary of the method: as §1
# [29] = target: Gal(b1-4)GlcNAc(b1-2)Man(a1-3)Man(b1-4)GlcNAc(b1-4)GlcNAc
# Summary of the method: as §1
# [30] = target: Gal(b1-4)GlcNAc(b1-2)Man(a1-3)[Gal(b1-4)GlcNAc(b1-2)Man(a1-6)]Man(b1-4)GlcNAc(b1-4)GlcNAc
# Summary of the method: as §1
# [31] = target: Gal(b1-4)GlcNAc(b1-2)Man(a1-3)[Gal(b1-4)GlcNAc(b1-2)Man(a1-6)]Man(b1-4)GlcNAc(b1-4)[Fuc(a1-6)]GlcNAc
# Summary of the method: as §1
# [32] = target: Gal(b1-4)GlcNAc(b1-2)Man(a1-3)[Gal(b1-4)GlcNAc(b1-2)Man(a1-6)][Gal(b1-4)GlcNAc(b1-4)]Man(b1-4)GlcNAc(b1-4)[Fuc(a1-6)]GlcNAc
# Summary of the method: as §1
# [33] = target: Gal(b1-4)GlcNAc(b1-2)Man(a1-3)[Gal(b1-4)GlcNAc(b1-2)Man(a1-6)][GlcNAc(b1-4)]Man(b1-4)GlcNAc(b1-4)[Fuc(a1-6)]GlcNAc
# Summary of the method: as §1
# [34] = target: Gal(b1-4)GlcNAc(b1-2)Man(a1-3)[GlcNAc(b1-2)Man(a1-6)]Man(b1-4)GlcNAc(b1-4)GlcNAc
# Summary of the method: as §1
# [35] = target: Gal(b1-4)GlcNAc(b1-2)Man(a1-3)[GlcNAc(b1-4)][Gal(b1-4)GlcNAc(b1-2)Man(a1-6)]Man(b1-4)GlcNAc(b1-4)GlcNAc
# Summary of the method: as §1
# [36] = target: Gal(b1-4)GlcNAc(b1-2)Man(a1-3)[Man(a1-6)]Man(b1-4)GlcNAc(b1-4)GlcNAc
# Summary of the method: as §1
# [37] = target: Gal(b1-4)GlcNAc(b1-2)Man(a1-6)Man(b1-4)GlcNAc(b1-4)GlcNAc
# Summary of the method: as §1
# [38] = target: Gal(b1-4)GlcNAc(b1-2)Man(a1-6)[GlcNAc(b1-2)Man(a1-3)]Man(b1-4)GlcNAc(b1-4)GlcNAc
# Summary of the method: as §1
binder,measurement,setting,value
Mnn9-2N3 (Aspergillus fumigatus) (protein) MAVARRMRRTNPITLLLAAILAIGFFIFVLSPSTTSASPVKAGSASSSSTSQQRREDNAAENPLSPPTKPFFKSQPVRHDGQQAPPPVVQYNLNQLSSTSTSAANGERILILTPMARFVPEYWDNVVKLTYPHELISIGFIIPKNKEGNAALAALEAAIAKTQSGPIDKRFASISILRQDFEPPLQSQDEKERHKISNQKARRESMSRARNSLLFTTLGPATAWVLWLDADIVETPPTLIQDLTAHDHPVLVPNCYQRYYNSEKKKMDVRPYDYNSWIDSSTAQSMAAEMGPDEILLEGYAEMPTYRTLMAHLADTANPNPKKVIELDGVGGTALMVKAEVHRDGAMFPAFPFYHLVETEGFAKMAKRLGYSVYGLPDYFVSRNFFFFFFFFFFG,glycan array binding signal (z-score),[1],0.414
same,glycan array binding signal (z-score),[2],0.404
same,glycan array binding signal (z-score),[3],-0.057
same,glycan array binding signal (z-score),[4],0.699
same,glycan array binding signal (z-score),[5],-1.63
same,glycan array binding signal (z-score),[6],-0.408
same,glycan array binding signal (z-score),[7],0.028
same,glycan array binding signal (z-score),[8],-0.101
same,glycan array binding signal (z-score),[9],-0.321
same,glycan array binding signal (z-score),[10],-1.56
same,glycan array binding signal (z-score),[11],0.017
same,glycan array binding signal (z-score),[12],-0.445
same,glycan array binding signal (z-score),[13],-0.841
same,glycan array binding signal (z-score),[14],1.35
same,glycan array binding signal (z-score),[15],0.195
same,glycan array binding signal (z-score),[16],0.109
same,glycan array binding signal (z-score),[17],0.28
same,glycan array binding signal (z-score),[18],0.71
same,glycan array binding signal (z-score),[19],0.073
same,glycan array binding signal (z-score),[20],0.319
same,glycan array binding signal (z-score),[21],-0.437
same,glycan array binding signal (z-score),[22],0.14
same,glycan array binding signal (z-score),[23],0.347
same,glycan array binding signal (z-score),[24],0.681
same,glycan array binding signal (z-score),[25],-0.238
same,glycan array binding signal (z-score),[26],0.799
same,glycan array binding signal (z-score),[27],0.224
same,glycan array binding signal (z-score),[28],0.107
same,glycan array binding signal (z-score),[29],-0.05
same,glycan array binding signal (z-score),[30],0.339
same,glycan array binding signal (z-score),[31],-0.584
same,glycan array binding signal (z-score),[32],-0.424
same,glycan array binding signal (z-score),[33],0.049
same,glycan array binding signal (z-score),[34],1.86
same,glycan array binding signal (z-score),[35],-0.193
same,glycan array binding signal (z-score),[36],-0.345
same,glycan array binding signal (z-score),[37],-0.394
same,glycan array binding signal (z-score),[38],-0.198

# Looked up one by one from the list above, two records:
binder,measurement,setting,value
Mnn9-2N3 (Aspergillus fumigatus) (protein) MAVARRMRRTNPITLLLAAILAIGFFIFVLSPSTTSASPVKAGSASSSSTSQQRREDNAAENPLSPPTKPFFKSQPVRHDGQQAPPPVVQYNLNQLSSTSTSAANGERILILTPMARFVPEYWDNVVKLTYPHELISIGFIIPKNKEGNAALAALEAAIAKTQSGPIDKRFASISILRQDFEPPLQSQDEKERHKISNQKARRESMSRARNSLLFTTLGPATAWVLWLDADIVETPPTLIQDLTAHDHPVLVPNCYQRYYNSEKKKMDVRPYDYNSWIDSSTAQSMAAEMGPDEILLEGYAEMPTYRTLMAHLADTANPNPKKVIELDGVGGTALMVKAEVHRDGAMFPAFPFYHLVETEGFAKMAKRLGYSVYGLPDYFVSRNFFFFFFFFFFG,glycan array binding signal (z-score),[13],-0.841
same,glycan array binding signal (z-score),[37],-0.394

# — the supplement of paper PMC8728848
